This note sets out measurements from publication PMC4114980.

No constants are given. Whether binding was seen depends on the method and setting. Where a sequence is shown, tags or fusion partners need not be part of it.

In this test the target is T1, Chro-421 (601–926), truncated COOH-terminal domain of Chromator, GST-fusion protein (Drosophila) (UniProt Q86BS3).
T1 sequence: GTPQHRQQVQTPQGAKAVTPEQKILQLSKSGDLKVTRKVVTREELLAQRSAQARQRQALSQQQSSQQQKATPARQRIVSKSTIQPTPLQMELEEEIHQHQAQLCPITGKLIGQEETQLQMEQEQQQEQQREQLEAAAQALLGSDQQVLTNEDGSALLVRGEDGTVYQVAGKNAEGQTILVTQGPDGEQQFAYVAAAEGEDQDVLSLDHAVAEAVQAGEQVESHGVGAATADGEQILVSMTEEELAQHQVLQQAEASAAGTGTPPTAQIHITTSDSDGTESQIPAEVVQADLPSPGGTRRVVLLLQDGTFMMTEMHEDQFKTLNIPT
As to the kind of experiment: far-Western, overlay or dot blot; GST fusion proteins fractionated by SDS-PAGE and blotted to nitrocellulose; incubated overnight at room temperature with 5 µg/ml bovine tubulin polymerized with 1 mM GTP and 20 µM taxol in PEMF buffer; bound microtubules detected with anti-tubulin antibody; both purified.

On to purified bovine brain tubulin (complex), for which the binding result is “no binding (tested: 5 µg/ml tubulin)”.
